From the supplement of paper PMC5355238
Where a name gives a salt, the structure may show the parent alone. The list shows a part of the results. Most entries show no effect beyond the scatter of the controls.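 Reh, a human leukemia cell line, is read out by flow cytometry as the median γH2AX antibody signal in S-phase cells; the score counts standard deviations from the median difference of each paired plate set. Scores above 2.5 were candidate hits; scores below -2 mark compounds lowering MK1775-induced damage.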

Tested on: Reh
Assay: Z' of S-phase gammaH2AX difference (drug + MK1775 minus drug alone) (Z-score); higher = stronger synergistic S-phase DNA damage with MK1775
Conditions: MK1775 concentration 400 nM; first compound 10 µM; 4 h

| Compound | Z' of S-phase gammaH2AX difference (Z-score) |
| --- | --- |
| O=Nc1ccc2oc(=O)ccc2c1 [6-Nitroso-1,2-benzopyrone] + C=CCn1c(=O)c2cnc(Nc3ccc(N4CCN(C)CC4)cc3)nc2n1-c1cccc(C(C)(C)O)n1 [MK1775] | inactive: -0.0728 |
| CC(=O)c1c(C)c2cnc(Nc3ccc(N4CCNCC4)cn3)nc2n(C2CCCC2)c1=O + C=CCn1c(=O)c2cnc(Nc3ccc(N4CCN(C)CC4)cc3)nc2n1-c1cccc(C(C)(C)O)n1 [MK1775] | inactive: -0.462 |
| CC(C)(C)c1ccc(S(=O)(=O)/C=C/C#N)cc1 + C=CCn1c(=O)c2cnc(Nc3ccc(N4CCN(C)CC4)cc3)nc2n1-c1cccc(C(C)(C)O)n1 [MK1775] | inactive: -4.03 |
| C[C@@H](O[C@H]1OCCN(Cc2n[nH]c(=O)[nH]2)[C@H]1c1ccc(F)cc1)c1cc(C(F)(F)F)cc(C(F)(F)F)c1 [Aprepitant (MK-0869)] + C=CCn1c(=O)c2cnc(Nc3ccc(N4CCN(C)CC4)cc3)nc2n1-c1cccc(C(C)(C)O)n1 [MK1775] | inactive: 0.489 |
| Cc1cn(-c2cc(NC(=O)c3ccc(C)c(Nc4nccc(-c5cccnc5)n4)c3)cc(C(F)(F)F)c2)cn1 [Nilotinib (AMN-107)] + C=CCn1c(=O)c2cnc(Nc3ccc(N4CCN(C)CC4)cc3)nc2n1-c1cccc(C(C)(C)O)n1 [MK1775] | inactive: -0.397 |
| NC(=O)c1ccc(-c2nc(-c3ccccn3)c(-c3ccc4c(c3)OCO4)[nH]2)cc1 + C=CCn1c(=O)c2cnc(Nc3ccc(N4CCN(C)CC4)cc3)nc2n1-c1cccc(C(C)(C)O)n1 [MK1775] | inactive: 0.147 |
| O=C(O)c1cc(=O)c2c(Cl)cc(Cl)cc2[nH]1 [5,7-Dichlorokynurenic acid] + C=CCn1c(=O)c2cnc(Nc3ccc(N4CCN(C)CC4)cc3)nc2n1-c1cccc(C(C)(C)O)n1 [MK1775] | inactive: 0.775 |
| COc1cc2c(NC3CCN(C)CC3)nc(N3CCCN(C)CC3)nc2cc1OCCCN(C)C + C=CCn1c(=O)c2cnc(Nc3ccc(N4CCN(C)CC4)cc3)nc2n1-c1cccc(C(C)(C)O)n1 [MK1775] | inactive: 0.498 |
| CCn1c(-c2nonc2N)nc2c(C#CC(C)(C)O)ncc(OC[C@H]3CCCNC3)c21 + C=CCn1c(=O)c2cnc(Nc3ccc(N4CCN(C)CC4)cc3)nc2n1-c1cccc(C(C)(C)O)n1 [MK1775] | inactive: -0.534 |
| NC(=O)CC[C@H](N)C(=O)O [L-Glutamine] + C=CCn1c(=O)c2cnc(Nc3ccc(N4CCN(C)CC4)cc3)nc2n1-c1cccc(C(C)(C)O)n1 [MK1775] | inactive: 0.0267 |
| CCN(CC)CCOc1ccc(Nc2ncc3cc(-c4c(Cl)cccc4Cl)c(=O)n(C)c3n2)cc1 + C=CCn1c(=O)c2cnc(Nc3ccc(N4CCN(C)CC4)cc3)nc2n1-c1cccc(C(C)(C)O)n1 [MK1775] | inactive: -0.608 |
| CN1C(=O)C(Cc2c[nH]c3ccccc23)NC1=S (centres undefined) [Necrostatin-1] + C=CCn1c(=O)c2cnc(Nc3ccc(N4CCN(C)CC4)cc3)nc2n1-c1cccc(C(C)(C)O)n1 [MK1775] | inactive: 0.0392 |
| CC(C)OC(=O)C(C)(C)Oc1ccc(C(=O)c2ccc(Cl)cc2)cc1 [Fenofibrate] + C=CCn1c(=O)c2cnc(Nc3ccc(N4CCN(C)CC4)cc3)nc2n1-c1cccc(C(C)(C)O)n1 [MK1775] | inactive: -0.357 |
| COc1cc2ncnc(-n3nc(-c4ccccn4)nc3N)c2cc1OC + C=CCn1c(=O)c2cnc(Nc3ccc(N4CCN(C)CC4)cc3)nc2n1-c1cccc(C(C)(C)O)n1 [MK1775] | inactive: -0.211 |
| NCCCCNS(=O)(=O)c1ccc2c(Cl)cccc2c1 + C=CCn1c(=O)c2cnc(Nc3ccc(N4CCN(C)CC4)cc3)nc2n1-c1cccc(C(C)(C)O)n1 [MK1775] | inactive: -0.02 |
| CCOC(=O)c1cnc2c(cnn2CC)c1NN=C(C)C [Etazolate hydrochloride] + C=CCn1c(=O)c2cnc(Nc3ccc(N4CCN(C)CC4)cc3)nc2n1-c1cccc(C(C)(C)O)n1 [MK1775] | inactive: 1.13 |
| COc1cc2ncnc(Nc3cccc(Cl)c3)c2cc1OC [Tyrphostin AG 1478] + C=CCn1c(=O)c2cnc(Nc3ccc(N4CCN(C)CC4)cc3)nc2n1-c1cccc(C(C)(C)O)n1 [MK1775] | inactive: 0.0168 |
| CC1CCN=C(N)S1 (centres undefined) [(?)-AMT hydrochloride] + C=CCn1c(=O)c2cnc(Nc3ccc(N4CCN(C)CC4)cc3)nc2n1-c1cccc(C(C)(C)O)n1 [MK1775] | inactive: -0.0635 |
| N#C/C(=C\c1ccc(O)c(O)c1)C(=O)NCCCc1ccccc1 [Tyrphostin AG 555] + C=CCn1c(=O)c2cnc(Nc3ccc(N4CCN(C)CC4)cc3)nc2n1-c1cccc(C(C)(C)O)n1 [MK1775] | inactive: -0.207 |
| COc1ccc(C2=N[C@@H](c3ccc(Cl)cc3)[C@@H](c3ccc(Cl)cc3)N2C(=O)N2CCNC(=O)C2)c(OC(C)C)c1 [Nutlin-3] + C=CCn1c(=O)c2cnc(Nc3ccc(N4CCN(C)CC4)cc3)nc2n1-c1cccc(C(C)(C)O)n1 [MK1775] | inactive: -0.132 |
| CN/C(=N\CCSCc1nc[nH]c1C)NC#N [Cimetidine] + C=CCn1c(=O)c2cnc(Nc3ccc(N4CCN(C)CC4)cc3)nc2n1-c1cccc(C(C)(C)O)n1 [MK1775] | inactive: -0.524 |
| c1ccc(C2CN3CCSC3=N2)cc1 (single isomer, unassigned; (-)) [(-)-Tetramisole hydrochloride] + C=CCn1c(=O)c2cnc(Nc3ccc(N4CCN(C)CC4)cc3)nc2n1-c1cccc(C(C)(C)O)n1 [MK1775] | inactive: -0.543 |
| NC(=O)c1ccc(I)c([N+](=O)[O-])c1 [Iniparib (BSI-201)] + C=CCn1c(=O)c2cnc(Nc3ccc(N4CCN(C)CC4)cc3)nc2n1-c1cccc(C(C)(C)O)n1 [MK1775] | inactive: 0.0451 |
| O=C(O)c1cc2cc(Cc3cccnc3)ccc2o1 [Furegrelate sodium] + C=CCn1c(=O)c2cnc(Nc3ccc(N4CCN(C)CC4)cc3)nc2n1-c1cccc(C(C)(C)O)n1 [MK1775] | inactive: -0.25 |

An excerpt of the results above, for reference:

| Compound | Z' of S-phase gammaH2AX difference (Z-score) |
| --- | --- |
| N#C/C(=C\c1ccc(O)c(O)c1)C(=O)NCCCc1ccccc1 [Tyrphostin AG 555] + C=CCn1c(=O)c2cnc(Nc3ccc(N4CCN(C)CC4)cc3)nc2n1-c1cccc(C(C)(C)O)n1 [MK1775] | inactive: -0.207 |
| COc1ccc(C2=N[C@@H](c3ccc(Cl)cc3)[C@@H](c3ccc(Cl)cc3)N2C(=O)N2CCNC(=O)C2)c(OC(C)C)c1 [Nutlin-3] + C=CCn1c(=O)c2cnc(Nc3ccc(N4CCN(C)CC4)cc3)nc2n1-c1cccc(C(C)(C)O)n1 [MK1775] | inactive: -0.132 |
